Values quoted from earlier work in patent US20010029264A1, “Novel methods and compositions for delivery of taxanes” (priority 1998, published 2001).

Details: aqueous solution; cited from earlier work

CC(=O)O[C@H]1C(=O)[C@@]2(C)[C@H]([C@H](OC(=O)c3ccccc3)[C@]3(O)C[C@H](OC(=O)[C@H](O)[C@@H](NC(=O)c4ccccc4)c4ccccc4)C(C)=C1C3(C)C)[C@]1(OC(C)=O)CO[C@@H]1C[C@@H]2O [paclitaxel]
water solubility: water insoluble
